Publication PMC3335838

How the values were obtained:
[1] = biological target: T1, APC10/DOC1, yeast two-hybrid fusion (Arabidopsis) (UniProt Q9ZPW2); experiment: two-hybrid; pair-wise, cross-mating of S. cerevisiae PJ69-4a and PJ69-4 alpha; diploids on SD-LW, interactions selected on -LWA; 28°C for 3 days (Figure 2)
T1 sequence: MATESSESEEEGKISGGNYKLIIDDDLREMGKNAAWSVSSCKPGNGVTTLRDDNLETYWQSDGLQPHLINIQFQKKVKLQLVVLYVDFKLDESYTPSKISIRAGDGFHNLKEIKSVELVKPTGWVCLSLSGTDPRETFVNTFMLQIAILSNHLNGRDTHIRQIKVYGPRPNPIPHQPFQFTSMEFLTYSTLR

[2] = biological target: T2, DRB4 (Double-stranded RNA Binding protein 4), full length, yeast two-hybrid fusion (Arabidopsis) (UniProt Q8H1D4); experiment: as above
T2 sequence: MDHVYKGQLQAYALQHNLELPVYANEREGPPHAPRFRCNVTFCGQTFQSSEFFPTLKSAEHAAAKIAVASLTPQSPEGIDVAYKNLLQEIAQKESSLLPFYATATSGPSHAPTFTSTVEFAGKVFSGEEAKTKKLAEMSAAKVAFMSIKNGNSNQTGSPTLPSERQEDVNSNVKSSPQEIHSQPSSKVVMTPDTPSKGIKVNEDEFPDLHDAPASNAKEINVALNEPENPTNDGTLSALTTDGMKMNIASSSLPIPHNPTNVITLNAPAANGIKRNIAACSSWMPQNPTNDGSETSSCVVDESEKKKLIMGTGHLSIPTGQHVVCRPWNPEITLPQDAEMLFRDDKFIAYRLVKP

binding [1]	binding [2]	Substance
binds	–	DRB4 deletion Δ1 (lacks only the first dsRBD), yeast two-hybrid fusion (Arabidopsis) (domain or fragment)
no binding	–	DRB4 deletion Δ2 (lacks the two dsRBDs), yeast two-hybrid fusion (Arabidopsis) (domain or fragment)
no binding	–	DRB4 deletion Δ3 (lacks the two dsRBDs), yeast two-hybrid fusion (Arabidopsis) (domain or fragment)
no binding	no binding	DRB4 deletion Δ7 (second dsRBD alone), yeast two-hybrid fusion (Arabidopsis) (domain or fragment)

Results are given in words; binding and its absence hold for the method and conditions named. For some assays here: A result given as binding can be weak or reduced; the word gives no strength. Sequences can lack the tags named with a protein.
